# Data: PubChem BioAssay AID504599 (National Center for Advancing Translational Sciences (NCATS), 2011)
# The inconclusive results got no clear call from the source. Where the call is inconclusive, the potency comes from a doubtful curve fit.
# Test: Quantitative high throughput screen for delayed death inhibitors of the malarial parasite plastid, 96 hour incubation.
# Details: P. falciparum luciferase growth; active = well fitted inhibition curve with a large enough effect; inconclusive = small, poorly fitted or top-dose-only effect; inactive = flat fitted curve, though single readings scatter
# Text: NIH Molecular Libraries Probe Production Network [MLPCN] NIH Chemical Genomics Center [NCGC] MLPCN Grant: R21 NS059500 Assay Provider: David Fidock and Eric Ekland, Columbia University The goal of this screen is to discover new antimalarial compounds that act by inhibiting the development of the apicoplast in the malarial parasite Plasmodium falciparum. The biochemical processes that make this organelle essential for erythrocytic stage parasites are not well understood. However, antibiotics, such as azithromycin and tetracycline, which target the apicoplast translational machinery, have a potent antimalarial effect. […] We have developed a cell-based assay that measures parasite growth based on the expression of an integrated copy of a firefly luciferase reporter. […] Growth inhibition is detected by a decrease in luciferase activity
# Four microliters of culture medium (RPMI 1640 with 0.5% w/v Albumax (GIBCO), 24 mM sodium bicarbonate and 10 ug/mL gentamycin) were dispensed by a Multi-drop Combi into white solid 1536-well plates (Grenier) and 23 nL compound was added by a pin tool. […] Two microliters of luciferase detection reagent was added and luminescence was detected by a ViewLux (PerkinElmer) reader
structure (smiles),measurement,value
C[C@@H]1CN([C@@H](C)CO)C(=O)c2cc(NC(=O)Nc3ccccc3)ccc2O[C@@H](C)CCCCO[C@H]1CN(C)C(=O)Oc1ccccc1,Potency,"inconclusive: 356 nM [inhibitor, full curve, poor fit]"
